Source: patent US20200323950A1 (priority 2017, published 2020)

Assay: general procedure: Fmoc solid-phase peptide synthesis; 2-chlorotrityl chloride resin (functionalized with hydrazine or Fmoc-Cys(Trt)-amino-alcohol); TentaGel-MB-RAM-resin; HCTU/DIPEA
Details: whole synthesis, overall

For “(H-Chex-Arg-Pro-Asp-Lys-Pro-Arg-Pro-Tyr-Leu-Pro-Arg-Pro-Arg-Pro-Pro-Arg-Pro-Val-Arg)2-Dab”, the isolated yield was 30%.
